Measured values taken from the supplement of paper PMC11732987, “Enantioselective OTUD7B fragment discovery through chemoproteomics screening and high-throughput optimisation” (Communications Chemistry, 2025).
This is one part of the list. The data scatter; read single values as rough.

Sequences of proteins named here, by UniProt entry; tags and fusion partners are left off. A change or cut given only in a name is not applied to a line headed by its entry. Residues count along the entry.
UniProt Q9NSY1, 10-42: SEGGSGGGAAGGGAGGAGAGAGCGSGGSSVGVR
UniProt Q9H2G9: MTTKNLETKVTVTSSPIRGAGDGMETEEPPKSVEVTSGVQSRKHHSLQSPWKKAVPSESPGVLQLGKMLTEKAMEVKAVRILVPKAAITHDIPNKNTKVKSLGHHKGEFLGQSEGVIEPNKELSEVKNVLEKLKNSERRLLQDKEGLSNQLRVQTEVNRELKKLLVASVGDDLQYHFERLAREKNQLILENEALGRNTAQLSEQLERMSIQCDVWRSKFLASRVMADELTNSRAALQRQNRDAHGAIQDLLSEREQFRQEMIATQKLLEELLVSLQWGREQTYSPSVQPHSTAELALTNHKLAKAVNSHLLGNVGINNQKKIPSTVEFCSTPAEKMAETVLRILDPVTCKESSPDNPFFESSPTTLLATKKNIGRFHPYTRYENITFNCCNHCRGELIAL
UniProt Q5T9A4, 546-566: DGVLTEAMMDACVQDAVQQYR
UniProt Q13315: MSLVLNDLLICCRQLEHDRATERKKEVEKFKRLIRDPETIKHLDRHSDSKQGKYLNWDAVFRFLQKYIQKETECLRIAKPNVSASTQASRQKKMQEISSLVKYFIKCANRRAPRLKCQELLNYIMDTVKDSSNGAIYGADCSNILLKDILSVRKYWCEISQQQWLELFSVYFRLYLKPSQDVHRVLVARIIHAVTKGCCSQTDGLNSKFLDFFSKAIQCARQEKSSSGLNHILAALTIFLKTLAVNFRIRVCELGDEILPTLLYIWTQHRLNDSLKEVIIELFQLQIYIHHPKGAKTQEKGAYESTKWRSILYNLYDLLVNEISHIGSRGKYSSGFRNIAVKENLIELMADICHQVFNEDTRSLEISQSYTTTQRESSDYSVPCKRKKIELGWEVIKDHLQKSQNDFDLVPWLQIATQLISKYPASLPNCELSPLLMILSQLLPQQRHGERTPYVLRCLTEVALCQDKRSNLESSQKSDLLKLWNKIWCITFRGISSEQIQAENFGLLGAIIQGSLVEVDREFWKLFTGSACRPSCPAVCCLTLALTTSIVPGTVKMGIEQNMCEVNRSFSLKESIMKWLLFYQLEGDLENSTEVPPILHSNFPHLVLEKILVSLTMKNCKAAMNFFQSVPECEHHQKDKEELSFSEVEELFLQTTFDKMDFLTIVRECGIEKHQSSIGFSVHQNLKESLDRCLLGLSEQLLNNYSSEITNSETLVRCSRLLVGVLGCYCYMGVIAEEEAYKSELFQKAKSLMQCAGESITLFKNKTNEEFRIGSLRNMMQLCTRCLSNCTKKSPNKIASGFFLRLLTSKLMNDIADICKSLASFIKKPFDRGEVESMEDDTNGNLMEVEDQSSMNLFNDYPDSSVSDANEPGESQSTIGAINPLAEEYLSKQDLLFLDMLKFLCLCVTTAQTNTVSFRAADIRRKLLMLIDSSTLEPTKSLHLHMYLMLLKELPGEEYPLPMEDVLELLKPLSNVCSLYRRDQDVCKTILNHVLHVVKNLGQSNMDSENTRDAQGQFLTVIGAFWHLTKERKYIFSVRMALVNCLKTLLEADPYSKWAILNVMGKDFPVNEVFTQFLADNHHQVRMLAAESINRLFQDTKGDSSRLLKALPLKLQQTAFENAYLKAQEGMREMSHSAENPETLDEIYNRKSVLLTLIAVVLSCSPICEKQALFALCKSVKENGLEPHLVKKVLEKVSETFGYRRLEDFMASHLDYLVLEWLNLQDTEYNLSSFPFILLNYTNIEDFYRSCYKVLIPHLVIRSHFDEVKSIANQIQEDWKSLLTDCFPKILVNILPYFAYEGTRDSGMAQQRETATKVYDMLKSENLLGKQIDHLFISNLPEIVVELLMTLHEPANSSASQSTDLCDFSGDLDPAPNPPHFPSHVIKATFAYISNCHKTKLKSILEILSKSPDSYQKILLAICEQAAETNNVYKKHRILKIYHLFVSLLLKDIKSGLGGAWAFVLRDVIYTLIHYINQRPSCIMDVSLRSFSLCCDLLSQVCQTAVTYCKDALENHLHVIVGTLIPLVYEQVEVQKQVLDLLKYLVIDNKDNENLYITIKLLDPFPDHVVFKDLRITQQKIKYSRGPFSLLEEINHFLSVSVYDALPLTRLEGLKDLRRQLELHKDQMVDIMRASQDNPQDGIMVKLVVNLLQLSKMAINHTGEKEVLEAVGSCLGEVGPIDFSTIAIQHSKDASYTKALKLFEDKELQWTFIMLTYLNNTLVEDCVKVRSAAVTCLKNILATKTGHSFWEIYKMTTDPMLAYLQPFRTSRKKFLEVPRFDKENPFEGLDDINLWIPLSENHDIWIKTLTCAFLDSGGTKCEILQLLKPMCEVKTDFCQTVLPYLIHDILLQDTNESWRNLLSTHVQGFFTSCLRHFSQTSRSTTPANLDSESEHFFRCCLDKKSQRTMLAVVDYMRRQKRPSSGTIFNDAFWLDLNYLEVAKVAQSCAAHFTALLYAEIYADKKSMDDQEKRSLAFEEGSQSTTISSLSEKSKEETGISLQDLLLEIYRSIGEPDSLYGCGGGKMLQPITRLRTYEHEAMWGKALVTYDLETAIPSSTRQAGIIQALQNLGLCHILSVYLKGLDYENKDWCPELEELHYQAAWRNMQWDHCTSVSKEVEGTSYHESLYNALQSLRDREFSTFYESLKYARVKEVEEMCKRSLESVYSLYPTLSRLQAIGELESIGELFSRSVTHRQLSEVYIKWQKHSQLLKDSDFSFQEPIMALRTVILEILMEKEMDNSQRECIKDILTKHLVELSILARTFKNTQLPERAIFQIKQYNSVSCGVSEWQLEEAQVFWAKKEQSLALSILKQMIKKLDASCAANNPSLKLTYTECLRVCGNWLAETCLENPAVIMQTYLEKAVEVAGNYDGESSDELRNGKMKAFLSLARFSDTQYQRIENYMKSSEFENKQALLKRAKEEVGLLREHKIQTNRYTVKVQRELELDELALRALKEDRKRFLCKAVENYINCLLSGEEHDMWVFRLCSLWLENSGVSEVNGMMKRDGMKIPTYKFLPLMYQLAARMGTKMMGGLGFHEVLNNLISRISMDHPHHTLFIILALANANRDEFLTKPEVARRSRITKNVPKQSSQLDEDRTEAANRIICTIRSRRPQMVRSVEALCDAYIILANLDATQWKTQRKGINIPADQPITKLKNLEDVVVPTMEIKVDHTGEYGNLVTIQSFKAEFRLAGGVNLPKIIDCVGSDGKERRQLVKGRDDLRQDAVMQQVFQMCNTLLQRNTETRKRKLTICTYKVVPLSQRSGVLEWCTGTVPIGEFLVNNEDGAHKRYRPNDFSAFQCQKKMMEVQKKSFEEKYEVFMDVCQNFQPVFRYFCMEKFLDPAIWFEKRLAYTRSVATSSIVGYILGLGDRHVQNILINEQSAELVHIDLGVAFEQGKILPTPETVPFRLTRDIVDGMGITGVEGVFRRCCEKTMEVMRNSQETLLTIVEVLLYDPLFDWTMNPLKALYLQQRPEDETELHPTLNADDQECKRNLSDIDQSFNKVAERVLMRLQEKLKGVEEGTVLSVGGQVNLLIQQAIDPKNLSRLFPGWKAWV
UniProt P46100: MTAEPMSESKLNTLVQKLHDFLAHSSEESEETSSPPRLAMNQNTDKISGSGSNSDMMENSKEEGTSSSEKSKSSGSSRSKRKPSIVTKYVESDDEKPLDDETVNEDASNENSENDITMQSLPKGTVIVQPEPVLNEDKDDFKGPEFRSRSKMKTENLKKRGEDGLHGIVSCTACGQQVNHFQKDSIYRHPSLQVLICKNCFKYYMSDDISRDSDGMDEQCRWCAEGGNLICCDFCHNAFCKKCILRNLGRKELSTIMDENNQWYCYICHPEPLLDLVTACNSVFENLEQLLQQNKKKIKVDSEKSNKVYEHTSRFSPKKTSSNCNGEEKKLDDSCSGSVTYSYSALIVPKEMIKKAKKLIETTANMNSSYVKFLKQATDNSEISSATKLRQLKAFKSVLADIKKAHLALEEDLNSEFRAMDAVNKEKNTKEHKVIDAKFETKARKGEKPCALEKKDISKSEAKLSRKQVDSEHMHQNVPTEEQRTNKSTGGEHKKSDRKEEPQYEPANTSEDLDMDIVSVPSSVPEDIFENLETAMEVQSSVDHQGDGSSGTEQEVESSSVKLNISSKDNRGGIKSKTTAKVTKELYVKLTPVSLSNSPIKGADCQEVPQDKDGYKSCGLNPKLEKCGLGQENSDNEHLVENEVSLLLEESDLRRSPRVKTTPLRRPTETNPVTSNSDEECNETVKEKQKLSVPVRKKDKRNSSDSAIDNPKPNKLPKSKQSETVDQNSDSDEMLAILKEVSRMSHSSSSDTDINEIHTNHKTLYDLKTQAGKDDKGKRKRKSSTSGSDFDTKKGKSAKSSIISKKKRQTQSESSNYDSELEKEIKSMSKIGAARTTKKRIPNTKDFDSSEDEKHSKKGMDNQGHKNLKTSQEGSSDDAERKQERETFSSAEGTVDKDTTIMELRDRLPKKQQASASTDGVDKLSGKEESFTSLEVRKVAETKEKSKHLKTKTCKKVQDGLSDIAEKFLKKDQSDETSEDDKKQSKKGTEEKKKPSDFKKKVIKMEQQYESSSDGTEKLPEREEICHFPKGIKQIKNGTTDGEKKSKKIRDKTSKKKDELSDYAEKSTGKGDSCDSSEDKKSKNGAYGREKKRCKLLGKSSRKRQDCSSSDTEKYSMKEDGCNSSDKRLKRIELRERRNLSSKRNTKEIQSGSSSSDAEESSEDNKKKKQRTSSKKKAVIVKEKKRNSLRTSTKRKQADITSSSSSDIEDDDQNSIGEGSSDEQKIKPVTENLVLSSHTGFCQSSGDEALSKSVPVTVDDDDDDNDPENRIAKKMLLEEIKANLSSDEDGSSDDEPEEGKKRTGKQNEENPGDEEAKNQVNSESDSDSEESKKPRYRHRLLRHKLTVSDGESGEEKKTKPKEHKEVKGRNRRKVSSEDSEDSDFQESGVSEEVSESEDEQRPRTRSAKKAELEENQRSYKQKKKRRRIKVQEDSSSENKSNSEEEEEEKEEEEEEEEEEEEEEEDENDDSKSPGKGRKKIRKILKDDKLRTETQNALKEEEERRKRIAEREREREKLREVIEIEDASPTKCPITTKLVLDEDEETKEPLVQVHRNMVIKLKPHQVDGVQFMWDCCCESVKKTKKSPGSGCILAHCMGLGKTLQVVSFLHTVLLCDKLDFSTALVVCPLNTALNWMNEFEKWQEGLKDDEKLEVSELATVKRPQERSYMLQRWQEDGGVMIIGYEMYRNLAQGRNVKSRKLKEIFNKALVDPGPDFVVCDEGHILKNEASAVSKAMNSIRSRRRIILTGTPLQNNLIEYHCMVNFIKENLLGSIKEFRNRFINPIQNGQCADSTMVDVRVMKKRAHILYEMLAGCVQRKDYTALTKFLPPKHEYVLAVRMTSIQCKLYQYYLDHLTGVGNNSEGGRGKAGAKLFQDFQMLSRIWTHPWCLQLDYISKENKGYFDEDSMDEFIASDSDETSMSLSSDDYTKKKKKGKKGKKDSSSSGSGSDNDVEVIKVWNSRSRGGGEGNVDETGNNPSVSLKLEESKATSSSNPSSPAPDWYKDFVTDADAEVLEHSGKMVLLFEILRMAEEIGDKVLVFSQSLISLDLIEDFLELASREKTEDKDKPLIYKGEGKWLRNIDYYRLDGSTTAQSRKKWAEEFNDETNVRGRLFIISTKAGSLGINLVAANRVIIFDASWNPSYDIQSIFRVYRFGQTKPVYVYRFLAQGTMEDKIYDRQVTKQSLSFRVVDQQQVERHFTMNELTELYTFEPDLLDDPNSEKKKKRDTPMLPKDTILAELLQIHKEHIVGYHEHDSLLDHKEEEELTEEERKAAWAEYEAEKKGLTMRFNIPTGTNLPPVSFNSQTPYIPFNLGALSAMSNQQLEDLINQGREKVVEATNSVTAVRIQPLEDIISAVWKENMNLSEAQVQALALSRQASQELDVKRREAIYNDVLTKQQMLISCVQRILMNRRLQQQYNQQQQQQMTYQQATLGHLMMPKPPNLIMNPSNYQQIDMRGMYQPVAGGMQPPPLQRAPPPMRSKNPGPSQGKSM
UniProt P36894: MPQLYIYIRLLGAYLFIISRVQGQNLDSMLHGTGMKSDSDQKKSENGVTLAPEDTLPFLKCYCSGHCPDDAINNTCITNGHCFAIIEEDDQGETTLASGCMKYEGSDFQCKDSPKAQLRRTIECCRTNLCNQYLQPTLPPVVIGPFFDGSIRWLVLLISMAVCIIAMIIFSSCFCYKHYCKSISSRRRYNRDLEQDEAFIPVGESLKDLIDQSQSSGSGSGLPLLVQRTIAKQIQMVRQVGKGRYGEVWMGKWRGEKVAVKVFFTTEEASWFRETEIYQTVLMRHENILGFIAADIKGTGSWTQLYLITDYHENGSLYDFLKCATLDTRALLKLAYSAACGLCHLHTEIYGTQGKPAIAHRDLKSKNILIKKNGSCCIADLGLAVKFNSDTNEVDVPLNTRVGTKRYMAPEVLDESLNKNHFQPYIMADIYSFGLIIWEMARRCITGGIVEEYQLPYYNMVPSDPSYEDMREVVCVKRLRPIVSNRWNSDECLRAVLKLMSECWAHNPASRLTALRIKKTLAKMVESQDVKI
UniProt Q9UIG0, 151-175: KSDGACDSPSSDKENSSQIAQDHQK
UniProt Q96DT6, 58-81: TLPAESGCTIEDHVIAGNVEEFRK

Tests used:
[1] = compound: ClCC(=O)N[C@@H]1CCCc2ccccc12; assay: log2 mean competition ratio of IA-DTB cysteine labelling (DMSO/compound) (log2 ratio); higher = stronger cysteine engagement by compound; conditions: treatment time: 4 h, cell line lysate: HEK293T
Procedure: (§1)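 IA-DTB competitive cysteine chemoproteomics in HEK293T RIPA lysate. Lysates were treated with compound 29 or 30 at 50 or 200 µM for 4 h, then IA-DTB (500 µM, 1 h), trypsin-digested, NeutrAvidin-enriched and analysed by diaPASEF. Competition ratio = intensity DMSO / intensity compound (n=4 treated, n=64 DMSO); binding: mean log2 CR ≥ 1 and p ≤ 0.05 plus QC filters. Target is the cysteine site.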

[2] = compound: ClCC(=O)N[C@H]1CCCc2ccccc12; assay: as above; conditions: treatment time: 4 h, cell line lysate: HEK293T
Procedure: as §1

Target	log2 mean competition ratio ([1]; 50 µM)	log2 mean competition ratio ([1]; 200 µM)	log2 mean competition ratio ([2]; 50 µM)	log2 mean competition ratio ([2]; 200 µM)
AURKA C290 (UniProt O14965)	0.306	-0.134	0.09	-0.148
BMP2K C32 (UniProt Q9NSY1)	-0.221	-0.171	0.214	-0.572
BLZF1 C349 (UniProt Q9H2G9)	-0.234	-0.00372	0.138	0.0833
ATR C38 (UniProt Q13535)	-0.119	-0.21	-0.136	-0.192
ATG14 C17 (UniProt Q6ZNE5)	0.204	0.0153	0.261	-0.0725
ATAD3B C557 (UniProt Q5T9A4)	0.422	-0.0503	0.189	-0.167
ATM C633 (UniProt Q13315)	-0.0033	-0.192	0.094	-0.349
ATRX C1718 (UniProt P46100)	0.0065	0.23	-0.433	-0.104
BLM C120 (UniProt P54132)	-0.0367	-0.0992	-0.0934	-0.124
ATM C564 (UniProt Q13315)	-0.226	0.037	-0.258	-0.0094
ATIC C434 (UniProt P31939)	0.0573	-0.128	-0.146	-0.322
BEND3 C597 (UniProt Q5T5X7)	-0.251	0.237	-0.158	-0.0867
ATRX C618 (UniProt P46100)	0.0115	-0.0114	0.0869	0.138
BMPR1A C503 (UniProt P36894)	–	0.238	-0.674	-0.11
ATM C384 (UniProt Q13315)	-0.138	0.184	0.325	0.269
BAZ1B C156 (UniProt Q9UIG0)	-0.235	0.253	-0.35	-0.0651
ATP6V1C1 C376 (UniProt P21283)	-0.0491	-0.125	-0.476	0.0851
BCAS2 C132 (UniProt O75934)	0.392	-0.0583	0.0678	-0.11
ATAD5 C1734 (UniProt Q96QE3)	0.218	-0.00747	0.42	0.235
BHLHE41 C203	-0.141	-0.0473	-0.248	0.142
ATG7 C322 (UniProt O95352)	0.113	0.101	-0.221	0.0979
BLM C396 (UniProt P54132)	-0.199	0.151	-0.231	0.243
BHLHB9 C101	0.376	-0.0322	0.189	0.0147
BDH2 C145 (UniProt Q9BUT1)	-0.212	-0.2	-0.028	-0.24
ATG4C C65 (UniProt Q96DT6)	-0.235	-0.321	-0.401	-0.543

Two consecutive entries from above, quoted:
Target	log2 mean competition ratio ([1]; 50 µM)	log2 mean competition ratio ([1]; 200 µM)	log2 mean competition ratio ([2]; 50 µM)	log2 mean competition ratio ([2]; 200 µM)
ATP6V1C1 C376 (UniProt P21283)	-0.0491	-0.125	-0.476	0.0851
BCAS2 C132 (UniProt O75934)	0.392	-0.0583	0.0678	-0.11
